At least one structure is not confirmed: it was looked up by name or label, or the drawing left a doubt.
Test system: chronic obstructive pulmonary disease (COPD)
Experiment: Animal test 1: OVA-induced COPD in rats, lung tissue and BALF infiltrating cells
Format: in vivo
Conditions: oral, 60 mg/kg, 1 h before OVA; lungs 24 h after; peroxidase stain
Method: In order to evaluate the pharmacological effect of the mT/PL-RP (Example 1) via intratracheal administration, chronic obstructive pulmonary disease (COPD) was induced in rats, and the effect was compared with the effect via oral administration. Ovalbumin (OVA, Sigma-Aldrich) was intraperitoneally administered three times at seven-day intervals. Next day, the mT/PL-RP (Example 1) (5 mg-PL/kg) was intratracheally administered, or the PL (Comparative Example 2) (60 mg/kg) was orally administered. One hour after the administration, inflammation was caused by intratracheally administering micronized OVA powder to induce COPD. Twenty-four hours after the inflammation caused by OVA administration, the lungs were excised and bronchoalveolar lavage fluid (BALF) was collected. The lung tissue was stained with peroxidase by a standard method and subsequently observed. […] FIG. 8 and Table 6 show the result.

SMILES: O=C(Nc1cccc2c(=O)cc(-c3nnn[nH]3)oc12)c1ccc(OCCCCc2ccccc2)cc1 [Crystalline PL, pranlukast]
- infiltration of granulocytic or monocytic cells into the lung tissue: infiltration was also suppressed

From patent EP4789662A1, “POWDER FOR INHALATION” (Nagase Viita Co., Ltd., priority 2023, dated 2025)
